Data: article PMC12719032, “Structural and biophysical insights into RomR, MglB, and MglC interactions involved in regulating cell polarity in Myxococcus xanthus” (The Journal of Biological Chemistry, 2025)
Results are given in words; binding and its absence hold for the method and conditions named.

Sequences of proteins named here, by UniProt entry; tags and fusion partners are left off. A change or cut given only in a name is not applied to a line headed by its entry.
UniProt Q1D3Z1: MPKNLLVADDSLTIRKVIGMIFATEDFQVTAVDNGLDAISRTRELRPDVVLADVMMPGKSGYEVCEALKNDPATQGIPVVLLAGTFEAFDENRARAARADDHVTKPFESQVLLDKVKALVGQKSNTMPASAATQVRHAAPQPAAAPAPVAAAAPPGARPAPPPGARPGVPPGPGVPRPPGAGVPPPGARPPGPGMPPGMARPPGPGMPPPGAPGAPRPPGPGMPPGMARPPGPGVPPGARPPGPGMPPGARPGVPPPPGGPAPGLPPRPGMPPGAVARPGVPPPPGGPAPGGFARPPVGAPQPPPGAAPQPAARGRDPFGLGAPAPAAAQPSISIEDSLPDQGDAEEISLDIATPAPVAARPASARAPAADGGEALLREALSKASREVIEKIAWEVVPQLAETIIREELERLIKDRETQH

Molecular target: RomR^371-420 (C-terminal helix of RomR, residues 371-420) (M. xanthus) (UniProt Q1D3Z1)
Assay: condition: 50 μM of RomR^371-420 was titrated with 500 μM of MglB; ITC; 50 μM RomR^371-420 in the cell titrated with 500 μM MglB; 30 injections; both purified

binding: no binding
B1: MglB (mutual gliding-motility protein B) (protein, UniProt Q1DB03 1-159)
chain: MGTQLVMYEEEFTKINAVCDRLTKDANAKVVFLVDKNGQLISSAGQTQNIDTTSLASLTAGNVAAMGGLAKLIGENEFPNQFHEGAKDSLYMTIVGSRVVLVVIFDNRTSLGLVRLRIKKASDELTKIFESLVKKTDSPGAGSPFAEISDDDIDNLFSE
